Binding data for one substance are collected here from publication PMC8313134.

The chains behind the UniProt entries cited, without tags or fusion partners. Where a name states a change or a piece, a line headed by the entry shows the natural chain unless it says otherwise.
UniProt M4IWN3: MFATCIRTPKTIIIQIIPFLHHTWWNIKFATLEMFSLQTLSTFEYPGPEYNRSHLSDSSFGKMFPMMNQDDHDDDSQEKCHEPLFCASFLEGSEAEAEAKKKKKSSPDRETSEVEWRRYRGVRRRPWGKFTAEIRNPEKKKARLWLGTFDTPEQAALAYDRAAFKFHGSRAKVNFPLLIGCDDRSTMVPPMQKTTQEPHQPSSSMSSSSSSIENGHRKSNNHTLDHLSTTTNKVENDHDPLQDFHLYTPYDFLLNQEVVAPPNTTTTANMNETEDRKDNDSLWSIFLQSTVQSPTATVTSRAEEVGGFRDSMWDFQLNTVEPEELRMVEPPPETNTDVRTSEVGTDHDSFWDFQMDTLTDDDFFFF

This test has as its target AaTCP15-nYFP (Artemisia annua). The test can be described thus: split reporter; BiFC: AaTCP15-nYFP and AaORA-cYFP transiently co-expressed in N. benthamiana leaf cells; YFP fluorescence by confocal microscopy, nuclei stained with DAPI.

These are yes or no findings as the source states them, for the method shown. Binding seen in cells or lysates may run through a third protein. Binding can be weak; no strength is given.

Regarding AaORA-cYFP (from UniProt M4IWN3), the binding entry was “binds”.
